Results are given in words; binding and its absence hold for the method and conditions named.
Biological target: LexA DNA binding domain Ras with the cysteine of the CAAX box mutated (UniProt P01112)
Assay: two-hybrid

B1: BRI3BP domain identified in the two-hybrid assay, overexpressed in mammalian cells (domain or fragment, UniProt Q8BXV2 85-253, looked up)
chain: RFVQGVDMFLETLWKVWMELLEVLGLDVSNLSQYFSPASVSNSPTRALVLVGVVLLAYWFLSLTLGFTFSLLHLVFGRFFWLVRVILFSMSCVYILHKYEGEPEHAVLPLCVVVAIYFMTGPMGYWRGSPGGLCSPSVEEKLEHLENQVRLLNIRLNRVLENLDRSKDK
- binding: no binding
